This is one part of the list.
Key:
Assay in all cases: log2 fold change, soluble protein after heating vs DMSO (PISA); higher = thermal stabilisation; K562 lysate, 10 uM; active = over 0.2 and 3.5 SD of the protein, either way, in both replicates (recomputed)
[1] = compound: O=C(CCCCCCC(=O)Nc1ccccc1)NO [vorinostat]
Outline: (§1)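 Following dounce homogenisation of K562 pellets in PBS pH 7.4 with 1 mM MgCl2, crude extract at 1 mg/mL protein was incubated for 30 min with 10 μM compound. Aliquots were then heated for 3 min over 48°C-58°C and pooled, NP-40 was added to 0.5% at 4°C, and soluble protein was recovered as the supernatant at 21,000xg for 90 min. Channel-sum-equalised TMTpro 16plex LC-MS/MS quantified this protein. Each value, from duplicates, is a log-two fold change in thermal stability relative to solvent controls.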

Protein sequences, listed by entry. Tags and fused reporters are not part of them. Lines headed by an entry give the natural chain unless they say otherwise; changes in a name come on top.
UniProt Q96RU7: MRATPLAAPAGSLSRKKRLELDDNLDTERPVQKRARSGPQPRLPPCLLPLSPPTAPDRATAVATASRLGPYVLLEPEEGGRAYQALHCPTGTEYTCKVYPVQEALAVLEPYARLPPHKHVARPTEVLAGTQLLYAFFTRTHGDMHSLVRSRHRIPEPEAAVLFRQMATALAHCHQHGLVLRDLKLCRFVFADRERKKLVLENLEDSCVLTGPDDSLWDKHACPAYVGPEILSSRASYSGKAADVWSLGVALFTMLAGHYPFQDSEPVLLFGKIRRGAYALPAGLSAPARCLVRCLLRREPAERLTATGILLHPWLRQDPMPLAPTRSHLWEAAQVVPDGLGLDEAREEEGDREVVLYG
UniProt Q96LD4: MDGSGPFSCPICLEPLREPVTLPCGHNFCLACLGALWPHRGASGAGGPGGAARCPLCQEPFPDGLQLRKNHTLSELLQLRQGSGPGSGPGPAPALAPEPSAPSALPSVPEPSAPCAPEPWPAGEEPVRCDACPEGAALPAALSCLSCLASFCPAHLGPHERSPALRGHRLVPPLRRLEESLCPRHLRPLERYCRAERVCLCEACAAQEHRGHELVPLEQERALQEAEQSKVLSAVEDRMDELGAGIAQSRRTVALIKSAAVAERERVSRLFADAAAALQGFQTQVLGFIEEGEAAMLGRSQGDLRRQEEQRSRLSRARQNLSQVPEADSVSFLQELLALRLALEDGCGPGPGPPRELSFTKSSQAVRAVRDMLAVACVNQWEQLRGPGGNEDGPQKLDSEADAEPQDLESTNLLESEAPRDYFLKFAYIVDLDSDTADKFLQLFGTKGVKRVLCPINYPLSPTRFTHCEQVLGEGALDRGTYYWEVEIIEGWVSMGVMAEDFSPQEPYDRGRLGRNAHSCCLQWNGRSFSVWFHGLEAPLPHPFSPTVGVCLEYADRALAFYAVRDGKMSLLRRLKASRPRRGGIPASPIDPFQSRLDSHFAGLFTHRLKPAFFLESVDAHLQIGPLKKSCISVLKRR
UniProt O95900: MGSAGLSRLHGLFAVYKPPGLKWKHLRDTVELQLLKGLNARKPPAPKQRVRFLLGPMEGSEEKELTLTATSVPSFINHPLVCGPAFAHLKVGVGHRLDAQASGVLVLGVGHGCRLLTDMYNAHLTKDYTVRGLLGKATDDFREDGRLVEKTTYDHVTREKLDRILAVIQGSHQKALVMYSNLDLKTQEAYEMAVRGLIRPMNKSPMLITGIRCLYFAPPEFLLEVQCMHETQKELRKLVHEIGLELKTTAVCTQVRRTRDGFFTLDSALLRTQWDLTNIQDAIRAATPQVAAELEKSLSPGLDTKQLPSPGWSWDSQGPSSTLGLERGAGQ
UniProt Q15035: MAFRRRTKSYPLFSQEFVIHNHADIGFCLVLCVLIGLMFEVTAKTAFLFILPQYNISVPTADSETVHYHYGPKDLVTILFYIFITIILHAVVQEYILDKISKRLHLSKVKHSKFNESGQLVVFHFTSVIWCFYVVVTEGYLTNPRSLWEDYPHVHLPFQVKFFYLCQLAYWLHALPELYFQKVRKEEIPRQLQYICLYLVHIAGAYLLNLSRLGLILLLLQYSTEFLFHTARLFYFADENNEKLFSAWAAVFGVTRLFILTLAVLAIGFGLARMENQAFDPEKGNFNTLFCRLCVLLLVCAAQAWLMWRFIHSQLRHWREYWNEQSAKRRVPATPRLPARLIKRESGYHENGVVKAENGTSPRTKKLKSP
UniProt Q629K1: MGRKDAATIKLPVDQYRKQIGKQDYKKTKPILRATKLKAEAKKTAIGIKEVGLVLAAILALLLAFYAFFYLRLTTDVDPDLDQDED
UniProt Q96QT4: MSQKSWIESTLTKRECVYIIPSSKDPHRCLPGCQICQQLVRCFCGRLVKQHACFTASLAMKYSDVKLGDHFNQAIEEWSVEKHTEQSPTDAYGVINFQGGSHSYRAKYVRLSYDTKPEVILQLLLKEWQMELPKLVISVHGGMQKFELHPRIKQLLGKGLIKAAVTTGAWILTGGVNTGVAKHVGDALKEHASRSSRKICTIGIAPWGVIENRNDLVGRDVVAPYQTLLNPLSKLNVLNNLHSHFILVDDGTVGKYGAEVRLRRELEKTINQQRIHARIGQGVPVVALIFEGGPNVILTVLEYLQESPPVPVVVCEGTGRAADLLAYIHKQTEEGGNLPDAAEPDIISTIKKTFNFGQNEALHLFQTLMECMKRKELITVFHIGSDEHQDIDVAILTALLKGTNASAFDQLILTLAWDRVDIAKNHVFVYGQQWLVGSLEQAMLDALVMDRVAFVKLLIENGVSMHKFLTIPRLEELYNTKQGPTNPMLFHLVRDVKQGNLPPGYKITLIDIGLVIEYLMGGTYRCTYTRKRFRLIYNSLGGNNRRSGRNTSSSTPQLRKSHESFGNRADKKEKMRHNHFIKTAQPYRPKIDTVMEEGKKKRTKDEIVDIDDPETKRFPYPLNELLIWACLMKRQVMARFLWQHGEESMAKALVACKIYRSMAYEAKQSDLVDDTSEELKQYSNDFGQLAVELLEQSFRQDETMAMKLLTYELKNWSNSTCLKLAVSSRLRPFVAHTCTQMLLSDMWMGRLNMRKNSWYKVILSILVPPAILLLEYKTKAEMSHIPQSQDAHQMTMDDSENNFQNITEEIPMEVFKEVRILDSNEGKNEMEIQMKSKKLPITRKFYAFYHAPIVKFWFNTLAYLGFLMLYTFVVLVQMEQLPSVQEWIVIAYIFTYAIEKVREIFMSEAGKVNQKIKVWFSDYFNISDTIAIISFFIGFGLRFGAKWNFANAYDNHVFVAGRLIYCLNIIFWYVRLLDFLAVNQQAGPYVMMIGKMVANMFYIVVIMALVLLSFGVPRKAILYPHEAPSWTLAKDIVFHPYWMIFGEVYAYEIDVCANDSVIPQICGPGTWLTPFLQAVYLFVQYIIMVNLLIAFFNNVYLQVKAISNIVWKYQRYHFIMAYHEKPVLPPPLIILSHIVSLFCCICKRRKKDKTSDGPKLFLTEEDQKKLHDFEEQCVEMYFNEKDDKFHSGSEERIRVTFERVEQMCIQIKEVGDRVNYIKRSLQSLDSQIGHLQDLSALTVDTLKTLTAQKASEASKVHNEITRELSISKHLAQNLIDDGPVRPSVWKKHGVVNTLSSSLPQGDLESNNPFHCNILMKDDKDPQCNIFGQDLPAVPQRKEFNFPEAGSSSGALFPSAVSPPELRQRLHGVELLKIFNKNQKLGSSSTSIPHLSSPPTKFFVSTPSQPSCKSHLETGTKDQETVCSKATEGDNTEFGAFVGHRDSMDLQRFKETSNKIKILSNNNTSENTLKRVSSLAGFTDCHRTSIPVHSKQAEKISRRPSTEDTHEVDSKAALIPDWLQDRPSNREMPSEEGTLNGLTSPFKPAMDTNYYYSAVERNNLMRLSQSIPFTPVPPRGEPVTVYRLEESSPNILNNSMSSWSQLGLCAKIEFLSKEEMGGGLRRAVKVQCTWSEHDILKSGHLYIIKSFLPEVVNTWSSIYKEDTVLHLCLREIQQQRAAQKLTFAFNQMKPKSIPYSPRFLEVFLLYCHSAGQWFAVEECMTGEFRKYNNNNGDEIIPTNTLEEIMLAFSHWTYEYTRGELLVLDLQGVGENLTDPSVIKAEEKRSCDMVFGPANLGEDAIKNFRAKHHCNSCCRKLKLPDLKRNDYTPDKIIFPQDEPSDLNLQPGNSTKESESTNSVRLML
UniProt Q15361: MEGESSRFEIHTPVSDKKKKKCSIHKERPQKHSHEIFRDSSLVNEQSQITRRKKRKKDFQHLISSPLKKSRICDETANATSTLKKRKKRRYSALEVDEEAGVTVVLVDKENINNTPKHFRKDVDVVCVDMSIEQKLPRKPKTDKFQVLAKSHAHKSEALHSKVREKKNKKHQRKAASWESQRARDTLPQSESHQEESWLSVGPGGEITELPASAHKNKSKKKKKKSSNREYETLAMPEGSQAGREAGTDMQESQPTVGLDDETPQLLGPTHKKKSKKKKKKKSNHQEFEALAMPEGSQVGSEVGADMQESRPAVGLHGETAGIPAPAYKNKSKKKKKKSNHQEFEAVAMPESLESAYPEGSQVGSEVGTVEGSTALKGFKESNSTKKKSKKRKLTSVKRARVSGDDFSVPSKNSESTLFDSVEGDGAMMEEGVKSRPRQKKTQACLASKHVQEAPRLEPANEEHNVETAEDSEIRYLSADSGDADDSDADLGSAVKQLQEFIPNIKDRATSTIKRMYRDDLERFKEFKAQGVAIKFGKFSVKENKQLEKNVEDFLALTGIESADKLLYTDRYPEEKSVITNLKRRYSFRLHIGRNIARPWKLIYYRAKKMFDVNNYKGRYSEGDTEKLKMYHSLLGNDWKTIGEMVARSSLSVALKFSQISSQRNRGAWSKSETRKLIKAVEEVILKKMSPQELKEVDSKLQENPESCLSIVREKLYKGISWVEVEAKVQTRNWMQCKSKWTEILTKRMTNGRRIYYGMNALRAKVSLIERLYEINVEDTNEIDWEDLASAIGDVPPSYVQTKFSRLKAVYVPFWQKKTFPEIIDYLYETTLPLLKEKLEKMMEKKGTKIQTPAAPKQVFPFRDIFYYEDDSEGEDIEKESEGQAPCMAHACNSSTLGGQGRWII
UniProt Q9C035: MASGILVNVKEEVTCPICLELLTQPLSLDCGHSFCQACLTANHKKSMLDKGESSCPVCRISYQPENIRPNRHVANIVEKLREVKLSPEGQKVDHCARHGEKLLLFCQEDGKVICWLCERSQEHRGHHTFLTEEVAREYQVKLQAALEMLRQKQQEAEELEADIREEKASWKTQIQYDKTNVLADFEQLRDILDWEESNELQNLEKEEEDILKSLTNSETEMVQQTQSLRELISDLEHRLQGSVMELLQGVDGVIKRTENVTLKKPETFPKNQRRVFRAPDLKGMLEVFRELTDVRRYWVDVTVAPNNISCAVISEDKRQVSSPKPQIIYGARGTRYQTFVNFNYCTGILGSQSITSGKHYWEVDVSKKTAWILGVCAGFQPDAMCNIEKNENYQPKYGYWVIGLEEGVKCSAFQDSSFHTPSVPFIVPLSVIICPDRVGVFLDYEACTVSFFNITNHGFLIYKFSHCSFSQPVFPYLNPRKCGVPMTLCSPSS
UniProt Q8TD43: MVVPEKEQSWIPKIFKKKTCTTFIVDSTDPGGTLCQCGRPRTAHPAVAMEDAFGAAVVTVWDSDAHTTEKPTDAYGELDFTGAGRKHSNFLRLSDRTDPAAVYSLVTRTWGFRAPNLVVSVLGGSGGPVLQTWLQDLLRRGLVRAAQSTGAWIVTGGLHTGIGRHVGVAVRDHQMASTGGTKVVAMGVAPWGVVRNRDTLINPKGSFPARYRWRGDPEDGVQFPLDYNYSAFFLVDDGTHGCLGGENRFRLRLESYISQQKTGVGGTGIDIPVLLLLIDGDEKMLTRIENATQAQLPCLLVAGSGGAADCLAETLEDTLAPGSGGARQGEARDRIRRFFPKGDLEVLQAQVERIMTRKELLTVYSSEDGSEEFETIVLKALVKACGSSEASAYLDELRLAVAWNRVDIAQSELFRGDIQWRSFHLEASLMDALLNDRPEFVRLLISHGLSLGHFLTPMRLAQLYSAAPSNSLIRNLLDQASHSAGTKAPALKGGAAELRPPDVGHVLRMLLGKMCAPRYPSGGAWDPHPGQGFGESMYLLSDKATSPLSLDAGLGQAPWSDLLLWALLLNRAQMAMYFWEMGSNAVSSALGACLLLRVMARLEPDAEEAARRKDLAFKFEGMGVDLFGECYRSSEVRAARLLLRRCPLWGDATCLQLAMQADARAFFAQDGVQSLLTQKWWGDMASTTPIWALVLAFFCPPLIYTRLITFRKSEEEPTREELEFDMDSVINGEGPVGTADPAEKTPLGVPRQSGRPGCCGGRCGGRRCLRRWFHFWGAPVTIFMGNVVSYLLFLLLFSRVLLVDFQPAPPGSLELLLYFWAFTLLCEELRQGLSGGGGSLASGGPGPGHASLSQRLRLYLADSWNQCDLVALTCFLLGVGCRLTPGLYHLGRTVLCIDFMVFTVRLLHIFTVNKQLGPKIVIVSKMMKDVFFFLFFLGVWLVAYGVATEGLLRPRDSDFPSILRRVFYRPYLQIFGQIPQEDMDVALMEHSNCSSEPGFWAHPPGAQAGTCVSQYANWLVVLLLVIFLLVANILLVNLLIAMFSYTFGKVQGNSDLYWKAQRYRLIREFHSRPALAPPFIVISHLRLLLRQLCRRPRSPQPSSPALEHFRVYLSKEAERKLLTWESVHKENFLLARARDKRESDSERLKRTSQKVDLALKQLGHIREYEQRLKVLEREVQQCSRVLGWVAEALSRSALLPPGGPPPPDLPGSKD

[2] = compound: O=C(O)c1ccc2c(c1)nc(Nc1cccc(Cl)c1)c1ccncc12 [silmitasertib]
Outline: as §1

[3] = compound: c1cn2cc(-c3ccc4cn[nH]c4c3)nc(Nc3ccc(N4CCOCC4)cc3)c2n1 [entospletinib]
Outline: as §1

[4] = compound: NCC(=O)Nc1ccc(-n2nc(C(F)(F)F)cc2-c2ccc3c(ccc4ccccc43)c2)cc1
Outline: as §1

[5] = compound: O=C1NC(=O)C(c2cnc3ccccn23)=C1c1cn2c3c(cc(F)cc13)CN(C(=O)N1CCCCC1)CC2
Outline: as §1

Measured: log2 fold change

TRIB3 (UniProt Q96RU7)
inactive: [1] 0.085 | [2] 0.146 | [3] -0.042

TRIM47 (UniProt Q96LD4)
inactive: [4] 0.084 | [1] -0.254 | [2] 0.211 | [3] 0.116

TRUB2 (UniProt O95900)
inactive: [4] 0.147 | [1] -0.024 | [2] 0.08 | [3] -0.025

TRAM2 (UniProt Q15035)
inactive: [5] 0.082

TRIQK (UniProt Q629K1)
inactive: [1] -0.069 | [2] -0.047 | [5] -0.099 | [3] 0.181

TSC22D1 isoform 2 (UniProt Q15714)
inactive: [5] -0.03 | [3] -0.314

Reprinted from the results shown (2 entries):
TRUB2 (UniProt O95900)
inactive: [4] 0.147 | [1] -0.024 | [2] 0.08 | [3] -0.025

TRAM2 (UniProt Q15035)
inactive: [5] 0.082

(listing goes on)

TRPM7 (UniProt Q96QT4)
inactive: [4] 0.046 | [5] -0.05 | [3] -0.043

TRMT2B (UniProt Q96GJ1)
inactive: [1] -0.242 | [2] 0.04 | [5] -0.003

TTF1 (UniProt Q15361)
inactive: [3] 0.028

TRIM5 (UniProt Q9C035)
inactive: [4] 0.048 | [1] -0.23 | [2] 0.059 | [5] 0.001 | [3] -0.001

TRAF3IP1 (UniProt Q8TDR0)
inactive: [4] 0.089 | [1] 0.072 | [2] 0.105 | [5] 0.05 | [3] -0.061

TRPM4 (UniProt Q8TD43)
inactive: [1] 0.161 | [2] -0.091 | [5] -0.078

From the supplement of paper PMC10849652
